One assay addresses T1, GST-USP4 (UniProt Q13107).
T1 sequence: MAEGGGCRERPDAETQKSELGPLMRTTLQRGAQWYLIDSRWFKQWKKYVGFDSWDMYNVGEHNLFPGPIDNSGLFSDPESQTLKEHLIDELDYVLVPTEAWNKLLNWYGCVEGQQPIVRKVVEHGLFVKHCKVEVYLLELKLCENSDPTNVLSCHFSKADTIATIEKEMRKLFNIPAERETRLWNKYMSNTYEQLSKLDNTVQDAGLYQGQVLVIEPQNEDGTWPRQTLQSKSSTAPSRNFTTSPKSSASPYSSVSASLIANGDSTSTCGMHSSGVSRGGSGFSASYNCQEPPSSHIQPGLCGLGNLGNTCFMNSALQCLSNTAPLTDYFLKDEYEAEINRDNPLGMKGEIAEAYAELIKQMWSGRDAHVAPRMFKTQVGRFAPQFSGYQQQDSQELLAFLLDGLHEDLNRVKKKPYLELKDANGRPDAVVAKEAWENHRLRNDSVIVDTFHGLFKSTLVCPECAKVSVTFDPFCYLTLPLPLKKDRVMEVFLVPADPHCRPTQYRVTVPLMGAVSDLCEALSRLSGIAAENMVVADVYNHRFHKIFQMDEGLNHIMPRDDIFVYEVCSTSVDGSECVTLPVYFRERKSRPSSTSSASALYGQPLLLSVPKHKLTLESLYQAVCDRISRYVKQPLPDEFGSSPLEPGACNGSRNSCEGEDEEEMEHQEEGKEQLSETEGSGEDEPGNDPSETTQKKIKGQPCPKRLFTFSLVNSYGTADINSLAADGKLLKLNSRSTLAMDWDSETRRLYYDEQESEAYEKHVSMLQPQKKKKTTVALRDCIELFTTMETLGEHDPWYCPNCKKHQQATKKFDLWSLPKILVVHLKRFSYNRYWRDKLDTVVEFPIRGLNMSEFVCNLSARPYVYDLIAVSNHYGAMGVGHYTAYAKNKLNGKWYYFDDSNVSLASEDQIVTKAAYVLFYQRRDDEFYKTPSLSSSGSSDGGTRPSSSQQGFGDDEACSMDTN
As to the kind of experiment: pull-down; in vitro GST pull down assay of USP4 and Rheb (Fig. 3b).

Chains of the proteins cited; added tags and fusions are not shown.
UniProt Q921J2: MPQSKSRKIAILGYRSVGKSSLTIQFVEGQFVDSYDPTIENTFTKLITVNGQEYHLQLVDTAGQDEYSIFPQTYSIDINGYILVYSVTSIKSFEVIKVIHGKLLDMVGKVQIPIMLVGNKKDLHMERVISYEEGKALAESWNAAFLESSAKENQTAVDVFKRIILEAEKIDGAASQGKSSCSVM
UniProt Q61037: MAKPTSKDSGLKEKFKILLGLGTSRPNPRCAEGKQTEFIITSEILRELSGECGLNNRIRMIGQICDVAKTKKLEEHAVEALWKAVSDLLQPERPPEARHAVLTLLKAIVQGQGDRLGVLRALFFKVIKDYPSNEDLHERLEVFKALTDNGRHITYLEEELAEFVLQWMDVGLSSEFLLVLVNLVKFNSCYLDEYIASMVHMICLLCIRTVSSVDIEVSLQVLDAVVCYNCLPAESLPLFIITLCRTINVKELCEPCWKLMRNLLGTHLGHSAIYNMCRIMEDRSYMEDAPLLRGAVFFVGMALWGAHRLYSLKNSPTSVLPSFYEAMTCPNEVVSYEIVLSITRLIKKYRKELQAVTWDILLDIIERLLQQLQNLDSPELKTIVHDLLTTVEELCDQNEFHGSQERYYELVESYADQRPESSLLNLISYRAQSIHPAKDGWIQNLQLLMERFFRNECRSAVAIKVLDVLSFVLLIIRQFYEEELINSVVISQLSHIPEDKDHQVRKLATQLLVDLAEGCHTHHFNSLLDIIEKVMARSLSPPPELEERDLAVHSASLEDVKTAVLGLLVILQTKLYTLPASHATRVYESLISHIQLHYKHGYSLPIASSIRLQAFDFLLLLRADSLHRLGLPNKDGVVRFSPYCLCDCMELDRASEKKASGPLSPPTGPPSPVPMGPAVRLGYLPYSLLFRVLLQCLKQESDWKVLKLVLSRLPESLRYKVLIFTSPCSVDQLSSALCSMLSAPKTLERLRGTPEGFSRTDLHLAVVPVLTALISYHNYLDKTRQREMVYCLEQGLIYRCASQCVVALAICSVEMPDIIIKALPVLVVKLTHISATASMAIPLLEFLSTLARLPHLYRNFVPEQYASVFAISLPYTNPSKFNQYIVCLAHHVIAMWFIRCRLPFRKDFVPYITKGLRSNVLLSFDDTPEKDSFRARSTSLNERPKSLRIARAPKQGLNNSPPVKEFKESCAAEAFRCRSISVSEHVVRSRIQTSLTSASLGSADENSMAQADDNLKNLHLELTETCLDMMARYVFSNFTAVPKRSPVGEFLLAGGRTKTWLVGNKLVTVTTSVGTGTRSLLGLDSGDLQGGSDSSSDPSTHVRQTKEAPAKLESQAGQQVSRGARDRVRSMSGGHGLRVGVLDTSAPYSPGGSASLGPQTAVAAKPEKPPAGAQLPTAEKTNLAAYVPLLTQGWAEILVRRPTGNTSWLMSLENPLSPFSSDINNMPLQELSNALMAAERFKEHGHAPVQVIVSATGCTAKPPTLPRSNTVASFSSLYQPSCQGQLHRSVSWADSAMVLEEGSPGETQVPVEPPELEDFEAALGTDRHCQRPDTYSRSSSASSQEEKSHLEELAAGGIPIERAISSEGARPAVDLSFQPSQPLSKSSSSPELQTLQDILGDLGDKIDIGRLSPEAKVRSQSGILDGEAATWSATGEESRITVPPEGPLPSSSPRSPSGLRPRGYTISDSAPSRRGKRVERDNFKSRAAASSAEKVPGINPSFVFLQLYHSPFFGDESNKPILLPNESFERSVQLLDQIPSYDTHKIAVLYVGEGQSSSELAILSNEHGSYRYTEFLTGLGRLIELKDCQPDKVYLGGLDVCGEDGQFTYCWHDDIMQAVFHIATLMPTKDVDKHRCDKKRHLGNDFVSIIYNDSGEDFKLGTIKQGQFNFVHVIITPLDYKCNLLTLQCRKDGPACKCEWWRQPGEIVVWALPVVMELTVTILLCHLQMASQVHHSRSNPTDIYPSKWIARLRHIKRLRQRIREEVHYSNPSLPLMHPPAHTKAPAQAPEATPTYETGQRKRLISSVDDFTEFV

In assay [1] the target is T2, RNF152 (endogenous) (human (endogenous in HEK293T)) (UniProt Q8N8N0).
T2 sequence: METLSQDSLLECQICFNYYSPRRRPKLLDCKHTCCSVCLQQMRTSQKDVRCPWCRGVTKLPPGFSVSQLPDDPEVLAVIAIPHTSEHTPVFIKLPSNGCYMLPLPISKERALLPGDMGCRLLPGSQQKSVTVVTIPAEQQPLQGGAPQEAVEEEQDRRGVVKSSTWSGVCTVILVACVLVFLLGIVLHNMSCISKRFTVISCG
In words: co-IP; endogenous proteins; CHAPS lysis buffer (40 mM HEPES pH 7.4, 120 mM NaCl, 1 mM EDTA, 0.3% CHAPS); cells with or without EGF, RNF152 or USP4 knock-down or knock-out, Vialinin A.

The next assay has as its target T3, RNF152 (exogenous) (UniProt Q8N8N0).
T3 sequence: T2 sequence
In words: co-IP; transfected HEK293T cells, CHAPS lysis buffer, HA-conjugated beads or M2 beads 2-3 h; with or without EGF, co-expressed TSC2, TSC2-3Q, RNF152, RNF152-CS, USP4, USP4-CS, USP4 deficiency.

For assay [2], the target named is Rheb in MEF cells (mouse (endogenous in MEF)) (UniProt Q921J2). As to the kind of experiment: co-IP; RNF152 knockout and control MEF cells (Fig. 4e).
The target of assay [3] is Rheb (endogenous) (human (endogenous in HEK293T)) (UniProt Q15382). As to the kind of experiment: co-IP; endogenous proteins; CHAPS lysis buffer (40 mM HEPES pH 7.4, 120 mM NaCl, 1 mM EDTA, 0.3% CHAPS); cells with or without EGF, RNF152 or USP4 knock-down or knock-out, Vialinin A.
For another assay, the target named is Rheb-WT (exogenous) (UniProt Q15382). In words: co-IP; transfected HEK293T cells, CHAPS lysis buffer, HA-conjugated beads or M2 beads 2-3 h; with or without EGF, co-expressed TSC2, TSC2-3Q, RNF152, RNF152-CS, USP4, USP4-CS, USP4 deficiency.

Residue numbers refer to the chain shown, from its start. Names may count otherwise. These are yes or no findings as the source states them, for the method shown. Binding seen in cells or lysates may run through a third protein. Some results given as binding are weak or reduced against the parent protein; the word gives no strength. For some assays here: Tags and fused reporters may be left off the sequences shown.

For His-Rheb (from UniProt Q15382 1-184), in the assay with GST-USP4, the binding entry is “binds”.
In the case of “Rheb (endogenous) (from UniProt Q15382 1-184)”, the binding entry in assay [1] is “binds”.
“Rheb-WT (exogenous) (from UniProt Q15382 1-184)”: in the assay with RNF152 (exogenous), the binding entry is “binds”.
Turning to “TSC2 in MEF cells (from UniProt Q61037 1-1814)”, the binding entry in assay [2] is reported as “binds”.

B1: USP4 (endogenous) (enzyme, UniProt Q13107 1-963)
chain: T1 sequence
For B1, the binding result in assay [3] is listed as “binds”.

B2: USP4-WT (exogenous) (enzyme, UniProt Q13107 1-963)
chain: T1 sequence
Take B2: the binding entry with Rheb-WT (exogenous) was “binds”.

B3: USP4-S445A (enzyme, UniProt Q13107 1-963)
chain: T1 sequence with S445A
As to B3, in the assay with Rheb-WT (exogenous), the binding result is recorded as “binds weakly”.

B4: USP4-S445D (enzyme, UniProt Q13107 1-963)
chain: T1 sequence with S445D
Regarding B4, in the assay with Rheb-WT (exogenous), the binding entry was “binds”.

Source of the values: article PMC6355928.
